Data as given in PubChem BioAssay AID504744 (Drosophila RNAi Screening Center, 2011).
Test: 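Identify dsRNAs that increase or decrease phospho-dAkt after insulin treatment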 (primary screen). System: Drosophila Kc167 cells. Reagents: long dsRNA against Drosophila genes, 250 ng dsRNA per well of a 384-well plate. Duration: 3 days of knock-down, then overnight serum-free starvation before stimulation. Challenge: bovine insulin at 387 nM for 10 minutes after 12 h without serum. Measurement: 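Per-well phospho-dAkt level from an in-cell fluorescent antibody stain, divided by a DNA-dye signal; log2 residuals turned into z-scores that take cell number into account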. Rule for the call: 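Hit in the insulin screen when the two-replicate mean z-score is more extreme than plus or minus 2.5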.
The deposit covers about 23,000 reagents; this is a random part of those with a known target gene and a result. Of all reagents, 98 (0.43%) were called active. 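Only hit calls are given; the phospho-dAkt signals, z-scores and hit direction were not deposited.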 A plus sign joins genes that one reagent is predicted to hit.

predicted target,dsRNA,outcome
CG1648,DRSC06610,inactive
CG3246,DRSC00584,inactive
a (arc),DRSC04667,inactive
a (arc),DRSC04668,inactive
CG32228,DRSC22296,inactive
CG13842,DRSC14692,inactive
squ (squash),DRSC01549,inactive
Mayo,DRSC14300,inactive
Npc2b (Niemann-Pick type C-2b),DRSC15464,inactive
Ran,DRSC20364,inactive
CG12985,DRSC19505,inactive
Jhbp5 (Juvenile hormone binding protein 5),DRSC14240,inactive
CG32814,DRSC17670,inactive
CG15044,DRSC19620,inactive
CG15044,DRSC21385,inactive
Fum4 (Fumarase 4),DRSC22577,inactive
zld (zelda),DRSC19486,inactive
zld (zelda),DRSC21721,inactive
CG13075,DRSC09958,inactive
CG17190,DRSC15184,inactive
pnr (pannier),DRSC17027,inactive
Tsp42En (Tetraspanin 42En),DRSC06185,inactive
CG18294 + 825-Oak + CG32214 + 2 more,DRSC22210,inactive
CG5382,DRSC15786,inactive
CG4884,DRSC15671,inactive
Nup214 (Nucleoporin 214kD),DRSC04421,inactive
CG3505,DRSC15489,inactive
CG13705,DRSC08314,inactive
CG13705,DRSC22691,inactive
CG16741,DRSC06622,inactive
sinah (sina homologue),DRSC09910,inactive
sinah (sina homologue),DRSC22181,inactive
ref(2)P (refractory to sigma P),DRSC03601,inactive
sage (salivary gland-expressed bHLH),DRSC14580,inactive
CG9166,DRSC07842,inactive
grh (grainy head),DRSC05680,inactive
grh (grainy head),DRSC05683,inactive
grh (grainy head),DRSC07624,inactive
grh (grainy head),DRSC07625,inactive
Sirt6 (Sirtuin 6),DRSC16010,inactive
CG17154,DRSC10253,inactive
CenB1A (Centaurin beta 1A),DRSC16923,inactive
"Dnai2 (dynein, axonemal, intermediate chain 2)",DRSC10575,inactive
pr (purple),DRSC03596,inactive
wuc (Wake-up-call),DRSC06152,inactive
CG3526,DRSC17240,inactive
CG3526,DRSC18636,inactive
vis + achi,DRSC07277,inactive
Pink1 (PTEN-induced putative kinase 1),DRSC18361,active
RpL37A (Ribosomal protein L37A),DRSC02899,inactive
CG13130 (retired record),DRSC02226,inactive
mRpS6 (mitochondrial ribosomal protein S6),DRSC08470,inactive
D19A,DRSC11133,active
CG1532,DRSC20516,inactive
nmdyn-D6,DRSC20355,inactive
CG16926,DRSC06637,inactive
Ubc7 (Ubiquitin conjugating enzyme 7),DRSC20299,inactive
boi,DRSC18425,inactive
boi,DRSC18598,inactive
dysf (dysfusion),DRSC14529,inactive
dysf (dysfusion),DRSC14895,inactive
dysf (dysfusion),DRSC14896,inactive
dysf (dysfusion),DRSC14897,inactive
Ser (Serrate),DRSC16856,inactive
